Laboratory results from PMC5461540, “MOB1 Mediated Phospho-recognition in the Core Mammalian Hippo Pathway” (Molecular & Cellular Proteomics : MCP, 2017).
These are yes or no findings as the source states them, for the method shown. In cells and extracts the contact can be indirect. A yes stands for co-enrichment or nearness to the bait. Other partners may have been found. Sequences can lack the tags named with a protein.

Target: T1, GST-MOB4 wild-type (human) (UniProt Q9Y3A3)
T1 sequence: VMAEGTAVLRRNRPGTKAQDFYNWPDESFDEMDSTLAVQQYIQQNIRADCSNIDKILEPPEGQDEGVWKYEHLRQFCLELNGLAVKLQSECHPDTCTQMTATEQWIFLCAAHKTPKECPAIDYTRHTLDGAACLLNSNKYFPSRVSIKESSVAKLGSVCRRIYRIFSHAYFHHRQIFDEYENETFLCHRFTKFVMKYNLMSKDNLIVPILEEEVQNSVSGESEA
Assay: affinity purification with mass spectrometry; GST-MOB4 WT or RRR→AAA on glutathione beads, 2 mg lysate of okadaic acid-treated HeLa cells, 2 h at 4 °C; SAINTexpress scoring against glutathione resin alone; only the target purified

B1: MST2 (endogenous, HeLa) (protein, UniProt Q13188-1 1-491)
chain: MEQPPAPKSKLKKLSEDSLTKQPEEVFDVLEKLGEGSYGSVFKAIHKESGQVVAIKQVPVESDLQEIIKEISIMQQCDSPYVVKYYGSYFKNTDLWIVMEYCGAGSVSDIIRLRNKTLIEDEIATILKSTLKGLEYLHFMRKIHRDIKAGNILLNTEGHAKLADFGVAGQLTDTMAKRNTVIGTPFWMAPEVIQEIGYNCVADIWSLGITSIEMAEGKPPYADIHPMRAIFMIPTNPPPTFRKPELWSDDFTDFVKKCLVKNPEQRATATQLLQHPFIKNAKPVSILRDLITEAMEIKAKRHEEQQRELEEEEENSDEDELDSHTMVKTSVESVGTMRATSTMSEGAQTMIEHNSTMLESDLGTMVINSEDEEEEDGTMKRNATSPQVQRPSFMDYFDKQDFKNKSHENCNQNMHEPFPMSKNVFPDNWKVPQDGDFDFLKNLSLEELQMRLKALDPMMEREIEELRQRYTAKRQPILDAMDAKKRRQQNF
  binding: binds
